## Results from one PubChem assay

From PubChem BioAssay record AID1159506 (NCATS, 2015).

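Luminescence from an EWS-FLI1 target-promoter (NR0B1) reporter, set against a CMV-promoter reporter, two days after silencing single genes in TC32 Ewing sarcoma cells.
Each siRNA was applied at 20 nM.
A z-score of the log NR0B1-over-CMV signal, less the median of siRNAs with the same seed; more negative means a stronger specific loss of the NR0B1 reporter.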

The strongest results of the screen are mostly left out here.
Sequences are the guide (antisense) strand, without overhang.

| # | strand | target gene | seed-corrected z-score |
|---|---|---|---|
| 1 | `AUAUCAAUCGCCGCUGUCC` | RTTN | 0.9463 |
| 2 | `UUAACUGCCUUGUCUGUCC` | PRDM4 | -1.751 |
| 3 | `AAUGCGUUCGUUGUCAUCC` | RASSF2 | 0.2425 |
| 4 | `UCACUACCAAUUAAAGUGG` | SEMA3E | 0.1173 |
| 5 | `AUUCGGAACACUCAUAUGG` | ZFP1 | 1.246 |
| 6 | `UCUGCUAGGAGUUAGUUCG` | RPL13AP17 | -0.503 |
| 7 | `UAUGGAACAUUGGACAUGC` | ACAT1 | 0.07733 |
| 8 | `UUCAAUGUAGGGUAAAGGC` | C10orf120 | 0.123 |
| 9 | `UAGUGGGAAACGAUUUUCU` | GJA8 | -0.4415 |
| 10 | `AGAAGACCGAGUCUUAGCC` | HIST1H2AB | 0.9025 |
| 11 | `AUAGCCUCCACAAUGGAUG` | IL21R | -0.8754 |
| 12 | `UUCUCGCUACCAUUGAAGG` | KRT31 | -0.2345 |
| 13 | `UUUCCGUCAGCUGUAAAAG` | GZMA | 0.02302 |
| 14 | `UAAACGACAGUAAUAAGCC` | VTA1 | 0.3128 |
| 15 | `UCCAGGUAAGCAGUCAUUC` | ITM2A | -0.04293 |
| 16 | `UUUGUCACCCGUCAGAUCC` | SPAG9 | -0.4466 |
| 17 | `UUUCCUUUCACAAACCCAG` | SLC7A2 | -0.6962 |
| 18 | `UUCCGGGCACUGGUUAUCC` | SRRM4 | -0.6564 |
| 19 | `AAGGCACUCGGUCACAUGG` | ROCK1P1 | 0.1042 |
| 20 | `UUAUUCUUCAAACCGAAAG` | ZC3H15 | -0.5984 |
| 21 | `AACGGAAUCACAGUGUAGC` | NOMO2 | 0.8914 |
| 22 | `UGUCGAAGUACACUGCACC` | LOC642381 | -0.4086 |
| 23 | `UCUUUUCCACACUAUAUCC` | TRAPPC13P1 | -0.1652 |
| 24 | `UUAUCGAUGAAAUACAGGG` | TOP1MT | 0.3417 |
| 25 | `AAUUGUAGUAAUAUGUAGG` | NUP35 | 1.232 |
| 26 | `GUAGUUGACAGUGUAGUUG` | DTX2 | 1.551 |
| 27 | `AUUUGAAUGGUCUUGAUUC` | DPPA3 | 1.354 |
| 28 | `AACAUAUCAGAGUCCUUCC` | TTC38 | -0.6836 |
| 29 | `UGUUCAAUAAAAUCCUCUC` | HSPA12A | 0.9357 |
| 30 | `UUCUGUGAAACUUUCCGGC` | RUNDC3B | -0.2117 |
| 31 | `UUCCCUACUGCUGAGAUGC` | IPO5 | -0.2592 |
| 32 | `AGAUCUACUAGUCUCUAUC` | TDRD7 | 1.378 |
| 33 | `UUAGUCUUAGUUGGAACAG` | C2orf40 | 0.2033 |
| 34 | `AUGUCGUAAAUCUUCACCC` | CGN | -0.3604 |
| 35 | `AUACCAACAGUCAUUGCUC` | HIGD1A | 0.12 |
| 36 | `UAGGGCUUGGAGGCAAUCC` | FAM122A | -1.193 |
| 37 | `UACUCGGUCACGUACUUCU` | PRDM15 | 0.2675 |
| 38 | `UCAGAAAUUUGCGUUGUUC` | HS6ST2 | 0.6702 |
| 39 | `UAGAGGUGCAGUUUCACUG` | TGM1 | -1.091 |
| 40 | `UUGUUGAUAACCGCUAAAG` | UBN2 | 0.121 |
| 41 | `ACAGGUCUAAAUCAAGGUG` | RPS26P35 | 1.815 |
| 42 | `UUCAGCACGAUCACGAUCU` | WDR45 | 1.33 |
| 43 | `AACGGUAACAAGGCUAGUG` | ERMP1 | -0.8168 |
| 44 | `AUUCGGAUUUGCUCGAUUC` | SMG7 | 0.7024 |
| 45 | `UACAUCGCGAUUCCAGAGG` | OR1K1 | 0.3079 |
| 46 | `UAGGUUUUCUUCCCGGUUC` | MICAL1 | 1.446 |
| 47 | `AUAUAGAUGUGCUUCUUCC` | GOT1L1 | 0.5067 |
| 48 | `UUGUGGAUGUUAGUACUCC` | LOC285299 | 0.5788 |

Some entries from above, unchanged:

| strand | target gene | seed-corrected z-score |
|---|---|---|
| `UUCCGGGCACUGGUUAUCC` | SRRM4 | -0.6564 |
| `UUAGUCUUAGUUGGAACAG` | C2orf40 | 0.2033 |
| `UUCUCGCUACCAUUGAAGG` | KRT31 | -0.2345 |